Results from patent publication US20170190744A1 (Vicuron Pharmaceuticals, Inc., priority 2015, published 2017).
For some assays here: At least one compound was matched to its structure with a doubt left. Some of these results come from one statement about several compounds together.

Columns and labels:
[1] = Drying of dalbavancin with/without sprayed water: MAG formation; format: physicochemical; details: tumble drier, external temperature 29-30° C., 10-15 mbar
S. aureus = assay: Murine lung-infection model; format: in vivo, mice; details: 24-hour dosing; differences not significant
[2] = test system: CR-BSI due to gram-positive bacterial pathogens; assay: Catheter-related blood stream infection (CR-BSI) trial: efficacy; format: in vivo, human; details: microbiological ITT population; dalbavancin 1000 mg day 1 + 500 mg day 8 IV; vancomycin 1000 mg IV every 12 hours
From the text: This study evaluated the safety and efficacy (clinical and microbiological) of a weekly dosing regimen of dalbavancin in the treatment of adults with catheter-related blood stream infection (CR-BSI) due to gram-positive bacterial pathogens, relative to the standard care of treatment, vancomycin.
Patients with CR-BSI due to suspected or known Gram-positive pathogen(s) who met the inclusion/exclusion criteria were randomized to one of two treatment arms in this open-label, comparative, multi-center study. Dalbavancin was administered once weekly in weekly dalbavancin and comparator (vancomycin) was administered daily in vancomycin. Catheter removal was required for patients with Staphylococcus aureus infection; catheter management was left to the Investigator's discretion for patients with coagulase-negative staphylococci (CoNS) infection. Efficacy was clinically based on the improvement or resolution of clinical signs and symptoms of CR-BSI such that no additional antibacterials were warranted, and microbiologically on the eradication or presence of the baseline or other pathogens. […]
Efficacy was evaluated based on clinical and microbiological responses.
For the primary efficacy analysis, 95% confidence intervals were also determined, and for prognostic factor analyses using the primary efficacy variable, logistic regression was used.

[3] = Metabolite levels in human plasma; format: in vivo; details: undetectable or close to the limit of detection

SMILES	MAG area % ([1]; time 0 h) [%]	MAG area % ([1]; time 8.5 h) [%]	MAG area % ([1]; time 9.5 h) [%]	MAG area % ([1]; time 11.5 h) [%]	MAG area % ([1]; time 15 h) [%]	dose-response curve in lung versus thigh model (S. aureus)	overall response success rate at TOC [2] [%]	metabolite level in human plasma [3] [mg/L]
CN[C@H]1C(=O)N[C@@H]2Cc3ccc(cc3)Oc3cc4cc(c3O[C@@H]3O[C@H](C(=O)O)[C@@H](O)[C@H](O)[C@H]3NC(=O)CCCCCCCCC(C)C)Oc3ccc(cc3Cl)[C@@H](O)[C@@H]3NC(=O)[C@H](NC(=O)[C@@H]4NC(=O)[C@@H](NC2=O)c2cc(cc(O)c2Cl)Oc2cc1ccc2O)c1ccc(O)c(c1)-c1c(O[C@H]2O[C@H](CO)[C@@H](O)[C@H](O)[C@@H]2O)cc(O)cc1[C@@H](C(=O)NCCCN(C)C)NC3=O [Dalbavancin]	0.11	0.12	0.13	0.31	0.38	shifted to the left	87.0	
CN[C@H]1C(=O)N[C@@H]2Cc3ccc(cc3)Oc3cc4cc(c3O)Oc3ccc(cc3Cl)[C@@H](O)[C@@H]3NC(=O)[C@H](NC(=O)[C@@H]4NC(=O)[C@@H](NC2=O)c2cc(cc(O)c2Cl)Oc2cc1ccc2O)c1ccc(O)c(c1)-c1c(O[C@H]2O[C@H](CO)[C@@H](O)[C@H](O)[C@@H]2O)cc(O)cc1[C@@H](C(=O)NCCCN(C)C)NC3=O [MAG]								< 0.4
